# Test system: spores
# Assay: Penetration of peracetic acid into spores under subcritical or supercritical carbon dioxide
# Conditions: subcritical or supercritical carbon dioxide treatment
smiles,measurement,setting,value
CC(=O)OO [peracetic acid],penetration of the spore,,can reach the spore core
same,penetration of the spore,listed as PAA,can penetrate deeply inside spores
